No constants are given. Whether binding was seen depends on the method and setting. Some entries that bind do so weakly or less than the wild type.

Amino acid sequences for entries named in this document (tags omitted).
UniProt Q9Y7M4: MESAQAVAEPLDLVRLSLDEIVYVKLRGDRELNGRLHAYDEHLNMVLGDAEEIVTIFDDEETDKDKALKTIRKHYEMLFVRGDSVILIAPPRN

The assay concerns the target T1, SpLsm2 (Lsm2 from S. pombe) (S. pombe) (UniProt O94408).
T1 sequence: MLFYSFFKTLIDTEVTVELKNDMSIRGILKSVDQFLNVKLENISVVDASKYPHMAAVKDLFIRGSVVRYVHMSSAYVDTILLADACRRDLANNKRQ
The assay is described as follows: co-purification of co-expressed proteins; co-expression in E. coli; TALON Co2+ column by the His6 tag of SpLsm2 (20 mM Hepes pH 7.5, 200 mM NaCl), then Superdex-200 (20 mM Hepes pH 7.5, 100 mM NaCl, 2 mM DTT).

On to “SpLsm3 from the co-expressed SpLsm2/3 sample (from UniProt Q9Y7M4 1-93)”, for which the binding result is listed as “binds”.

The record behind these values is article PMC3355152.
